Data reported in publication PMC8307317 (Molecules, 2021).
Strings that start with PEPTIDE1 are HELM notation: dots part the residues, brackets hold end groups and non-standard residues.

Assay: general procedure: Fmoc solid-phase peptide synthesis; Rink amide MBHA resin; HBTU/DIEA
Conditions: whole synthesis, analytical RP-HPLC, Vydac 218TP54 C18, scale of the general procedure 0.1 mmol

Row | Substance | final HPLC purity [%]
1 | PEPTIDE1{G.G.C.S.C.R.F.[am]}$PEPTIDE1,PEPTIDE1,3:R3-5:R3$$$V2.0 | 99.9
2 | PEPTIDE1{G.G.C.S.F.R.C.[am]}$PEPTIDE1,PEPTIDE1,3:R3-7:R3$$$V2.0 | 99.9
3 | PEPTIDE1{G.G.F.S.C.R.C.[am]}$PEPTIDE1,PEPTIDE1,5:R3-7:R3$$$V2.0 | 99.9
4 | PEPTIDE1{G.G.F.S.F.R.F.[am]}$$$$V2.0 | 99.9
5 | PEPTIDE1{G.G.F.S.F.R.W.[am]}$$$$V2.0 | 99.9
6 | PEPTIDE1{G.G.F.S.F.R.[2Nal].[am]}$$$$V2.0 | 99.9
7 | PEPTIDE1{G.G.F.S.F.R.[AHPPA].[am]}$$$$V2.0 | 99.9
8 | PEPTIDE1{G.G.F.S.F.R.[NMePhe].[am]}$$$$V2.0 | 99.9
9 | PEPTIDE1{G.G.F.S.F.R.[NPhe].[am]}$$$$V2.0 | 99.9
10 | PEPTIDE1{G.G.F.S.F.R.[Oic].[am]}$$$$V2.0 | 99.9
11 | PEPTIDE1{G.G.F.S.F.R.[Thi].[am]}$$$$V2.0 | 99.9
12 | PEPTIDE1{G.G.F.S.F.R.[Tic].[am]}$$$$V2.0 | 99.9
13 | PEPTIDE1{G.G.F.S.F.R.[dW].[am]}$$$$V2.0 | 99.9
14 | PEPTIDE1{G.G.F.S.W.R.F.[am]}$$$$V2.0 | 99.9
15 | PEPTIDE1{G.G.F.S.[2Nal].R.F.[am]}$$$$V2.0 | 99.9
16 | PEPTIDE1{G.G.F.S.[AHPPA].R.F.[am]}$$$$V2.0 | 99.9
17 | PEPTIDE1{G.G.F.S.[NMePhe].R.F.[am]}$$$$V2.0 | 98.9
18 | PEPTIDE1{G.G.F.S.[NPhe].R.F.[am]}$$$$V2.0 | 99.9
19 | PEPTIDE1{G.G.F.S.[Oic].R.F.[am]}$$$$V2.0 | 99.9
20 | PEPTIDE1{G.G.F.S.[Thi].R.F.[am]}$$$$V2.0 | 99.9
21 | PEPTIDE1{G.G.F.S.[Tic].R.F.[am]}$$$$V2.0 | 99.9
22 | PEPTIDE1{G.G.F.S.[dW].R.F.[am]}$$$$V2.0 | 99.9

Row | Substance | final HPLC purity [%]
23 | PEPTIDE1{G.G.W.S.F.R.F.[am]}$$$$V2.0 | 99.9
24 | PEPTIDE1{G.G.[2Nal].S.F.R.F.[am]}$$$$V2.0 | 99.9
25 | PEPTIDE1{G.G.[AHPPA].S.F.R.F.[am]}$$$$V2.0 | 99.9
26 | PEPTIDE1{G.G.[DTic].S.F.R.F.[am]}$$$$V2.0 | 99.9
27 | PEPTIDE1{G.G.[NMePhe].S.F.R.F.[am]}$$$$V2.0 | 99.9
28 | PEPTIDE1{G.G.[NPhe].S.F.R.F.[am]}$$$$V2.0 | 99.9
29 | PEPTIDE1{G.G.[Oic].S.F.R.F.[am]}$$$$V2.0 | 99.9
30 | PEPTIDE1{G.G.[Phg].S.F.R.F.[am]}$$$$V2.0 | 97.8
31 | PEPTIDE1{G.G.[Thi].S.F.R.F.[am]}$$$$V2.0 | 99.9
32 | PEPTIDE1{G.G.[Tic].S.F.R.F.[am]}$$$$V2.0 | 99.9
33 | PEPTIDE1{G.G.[dW].S.F.R.F.[am]}$$$$V2.0 | 99.9
34 | PEPTIDE1{[Cmpi(3,4-diMeOPhg)].S.F.R.F.[am]}$$$$V2.0 | 99.9
35 | PEPTIDE1{[Cmpi(3-FPhg)].S.F.R.F.[am]}$$$$V2.0 [53] | 99.9
36 | PEPTIDE1{[Cmpi(3-FPhg)].S.F.R.F.[am]}$$$$V2.0 [54] | 99.9
37 | PEPTIDE1{[Cmpi(3-Pyg)].S.F.R.F.[am]}$$$$V2.0 [63] | 99.9
38 | PEPTIDE1{[Cmpi(3-Pyg)].S.F.R.F.[am]}$$$$V2.0 [64] | 99.9
39 | PEPTIDE1{[Cmpi(4-FPhg)].S.F.R.F.[am]}$$$$V2.0 [51] | 99.9
40 | PEPTIDE1{[Cmpi(4-FPhg)].S.F.R.F.[am]}$$$$V2.0 [52] | 99.9
41 | PEPTIDE1{[Cmpi(4-MeOPhg)].S.F.R.F.[am]}$$$$V2.0 | 99.9
42 | PEPTIDE1{[Cmpi(4-TfmPhg)].S.F.R.F.[am]}$$$$V2.0 | 99.9
43 | PEPTIDE1{[Cmpi(Phg)].S.F.R.F.[am]}$$$$V2.0 | 99.9
